# Measurements: PubChem BioAssay AID651768 (National Center for Advancing Translational Sciences (NCATS), 2012)
# Amino acid sequences for entries named in this document (tags omitted).
# UniProt Q14191, whole entry, looked up: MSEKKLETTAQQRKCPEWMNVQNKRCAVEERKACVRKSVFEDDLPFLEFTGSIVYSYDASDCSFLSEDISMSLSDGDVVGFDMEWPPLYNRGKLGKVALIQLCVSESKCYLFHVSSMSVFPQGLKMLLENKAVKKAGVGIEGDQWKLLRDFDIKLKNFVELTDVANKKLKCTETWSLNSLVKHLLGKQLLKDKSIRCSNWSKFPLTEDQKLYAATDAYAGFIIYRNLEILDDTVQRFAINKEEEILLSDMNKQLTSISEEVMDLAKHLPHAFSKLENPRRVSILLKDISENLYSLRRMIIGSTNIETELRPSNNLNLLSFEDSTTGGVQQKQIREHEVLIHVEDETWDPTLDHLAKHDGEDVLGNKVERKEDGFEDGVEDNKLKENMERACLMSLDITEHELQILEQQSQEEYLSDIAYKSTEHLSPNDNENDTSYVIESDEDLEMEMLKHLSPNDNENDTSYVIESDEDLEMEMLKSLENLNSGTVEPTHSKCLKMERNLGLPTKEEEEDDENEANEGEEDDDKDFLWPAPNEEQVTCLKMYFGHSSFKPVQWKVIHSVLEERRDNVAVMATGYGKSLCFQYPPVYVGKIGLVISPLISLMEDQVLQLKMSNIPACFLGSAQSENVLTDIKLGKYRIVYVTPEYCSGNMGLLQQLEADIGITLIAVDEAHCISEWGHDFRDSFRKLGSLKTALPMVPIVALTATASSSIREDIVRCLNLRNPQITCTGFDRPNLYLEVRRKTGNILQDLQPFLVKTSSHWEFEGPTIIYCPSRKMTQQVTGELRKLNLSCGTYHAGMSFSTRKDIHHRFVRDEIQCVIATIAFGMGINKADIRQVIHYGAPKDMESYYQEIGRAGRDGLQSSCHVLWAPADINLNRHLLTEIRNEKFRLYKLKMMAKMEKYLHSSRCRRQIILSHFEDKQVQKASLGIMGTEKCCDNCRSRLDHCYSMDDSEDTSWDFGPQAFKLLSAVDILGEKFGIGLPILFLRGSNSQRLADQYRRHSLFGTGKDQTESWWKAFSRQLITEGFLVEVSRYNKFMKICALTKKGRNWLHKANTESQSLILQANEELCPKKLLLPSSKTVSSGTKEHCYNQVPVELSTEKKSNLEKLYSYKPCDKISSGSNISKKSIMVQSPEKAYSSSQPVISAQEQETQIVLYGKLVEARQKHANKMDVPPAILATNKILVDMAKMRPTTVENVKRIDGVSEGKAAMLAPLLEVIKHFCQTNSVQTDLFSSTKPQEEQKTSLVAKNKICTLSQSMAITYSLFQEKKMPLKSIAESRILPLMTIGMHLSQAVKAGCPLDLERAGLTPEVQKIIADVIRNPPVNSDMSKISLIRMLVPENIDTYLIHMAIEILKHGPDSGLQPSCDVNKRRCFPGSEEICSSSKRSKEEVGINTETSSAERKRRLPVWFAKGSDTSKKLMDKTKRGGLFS
# The campaign covered roughly 360,000 compounds. About 1,700 (0.47%) were called active. Inconclusive means that the source gave no clear call. Such entries were picked first, then a sample of the others. The call rests on the fitted dose curve; in most records, active means well fitted inhibition curve with a large enough effect; inconclusive means small, poorly fitted or top-dose-only effect; inactive means no such curve, though single readings can be large or run the other way. Potencies of inconclusive entries are doubtful fits and often do not repeat.
# Target: Bifunctional 3'-5' exonuclease/ATP-dependent helicase WRN (Homo sapiens) (UniProt Q14191)
# Assay: qHTS for Inhibitors of WRN Helicase; further: nearly all actives have a fitted effect of over 55% in size
# Settings: WRN helicase unwinding, fluorescent forked duplex, kinetic; activity change, negative = inhibition: at 114 µM (top of the series) unless noted
# Description: Inhibition of DNA repair is proposed as a strategy for combating cancer. Synthetic lethality is an approach that exploits preexisting DNA repair deficiencies in certain tumors to develop inhibitors of DNA repair pathways that compensate for the tumor-associated DNA repair deficiency. Because helicases play critical roles in the DNA damage response and in DNA repair, particularly in actively dividing and replicating cells, characterization of synthetic lethal relationships of DNA helicases may be of value in developing improved anticancer treatment strategies; moreover, small molecules that specifically target a given DNA helicase may be useful for understanding its role in cellular nucleic acid metabolism. The goal of this project is to identify small molecule, non-covalent chemical inhibitors of the Werner syndrome (WS) helicase (WRN), which plays an important role in cell proliferation, the replication stress response, and DNA repair. […] The WRN gene product that is defective in the chromosomal instability disorder has DNA helicase and exonuclease activities and interacts with a number of nuclear proteins to maintain genomic stability. We will employ an optimized high-throughput screening assay that utilizes a fluorescence intensity modulation scheme with a fluorophore and quencher positioned near one another within a duplex deoxyoligonucleotide that contains a single forked structure. After a high-throughput screen of the ~350,000-member Molecular Libraries Small Molecule Repository (MLSMR) collection, followed by data analysis and hit selection, a panel of confirmatory, as well as secondary and ternary, assays will be employed to identify high-confidence WRN inhibitors. Structure-activity relationships will be investigated for the top candidate inhibitor series through medchem expansion. These are the results of the primary screening campaign against the MLSMR. NIH Chemical Genomics Center [NCGC] NIH Molecular Libraries Probe Centers Network [MLPCN] MLPCN Grant: MH096530 Assay Submitter (PI): Robert Brosh, National Institute of Aging
# Three muL of reagents (buffer in columns 3 and 4 as negative controls; WRN at 20 nM final concentration in columns 1 and 2 as positive controls; columns 5-48 as test reactions) will be dispensed into a 1536-well Greiner black plate via solenoid-valve based nanoliter dispensers. Compounds (23 nL each in columns 5-48) and control (23 nL each in column 2 as dose-response) will be transferred via a Kalypsys pintool equipped with a 1536-pin array. Plates will be incubated for 15 min at room temperature, and then 1 µL of substrate (100 nM forked duplex oligonucleotide and 2 mM ATP final concentrations) will be added to start reaction, and plate will be transferred into a ViewLux high-throughput CCD imager where reaction progress is measured in kinetic mode using standard red-fluorescence optics (excitation filter 525 nm, emission filter 598 nm).
# On the % scale 0 is the no-effect control and ±100 the full control effect; potency means the concentration at half of the fitted maximal effect.
Compound,"activity change, negative = inhibition",Potency
COc1ccc(/C=C2\SC(=S)N(CCC(=O)Nc3ccc(C(=O)O)cc3)C2=O)cc1OC,inactive: -15.4%,–
CCOc1cc(/C=C2\C(=N)N3N=CSC3=NC2=O)ccc1OS(=O)(=O)c1ccccc1,inactive: -27.6%,–
CC(=O)Oc1ccc2c(c1)Oc1cc(OC(C)=O)ccc1C21OC(=O)c2ccccc21,inactive: -17.9%,–
CCNc1nc2[nH]c(=O)c3c(c2s1)OC(N)=C(C#N)C3c1ccc(C)cc1 (centres undefined),inactive: -29.5%,–
O=C1C=CC(=O)N1c1ccc2c(c1)C(NC(=O)C(F)(F)F)c1ccccc1-2 (centres undefined),–,active: 56.2 µM
CN(c1ccccc1)c1ccc(/C=C/[N+](=O)[O-])cc1,–,"inconclusive: 22.4 µM [inhibitor, full curve]"
O=[N+]([O-])c1ccc(C2=NN(c3ccccc3)C(c3ccco3)C2)cc1 (centres undefined),–,"inconclusive: 35.5 µM [inhibitor, partial curve, poor fit]"
C/C(=N\NC(=O)c1cccc(S(=O)(=O)Nc2ccccc2Cl)c1)c1ccc(-n2ccnc2)cc1,–,"inconclusive: 63.1 µM [inhibitor, partial curve, poor fit]"
Cc1ccc(C(=O)CSc2nnc(-c3ccco3)n2Cc2ccccc2)cc1,–,"inconclusive: 70.8 µM [inhibitor, partial curve]"
CN(Cc1ccco1)S(=O)(=O)c1nnc(NC(=O)c2ccccc2Cl)s1,–,"inconclusive: 56.2 µM [inhibitor, partial curve]"
COc1ccc(OC)c2c1C(=O)c1ccccc1C2=O,–,"inconclusive: 50.1 µM [inhibitor, partial curve]"
O=C1/C(=C\c2cc(Br)cc(Br)c2O)SC(=S)N1Cc1ccccc1,–,active: 39.8 µM
Cc1ccc(OCC(=O)N(C)CC(=O)NCc2ccco2)c(Br)c1,–,"inconclusive: 56.2 µM [inhibitor, partial curve]"
Nc1nc(Sc2ccc([N+](=O)[O-])c3nonc23)c2[nH]cnc2n1,–,active: 11.2 µM
Cc1ccccc1NC(=O)NNC(=O)COc1ccc2ccccc2c1,–,"inconclusive: 79.4 µM [inhibitor, single point]"
Cc1nn(C2CCS(=O)(=O)C2)c(C)c1C=O (centres undefined),–,"inconclusive: 89.1 µM [inhibitor, single point]"
O=C1CCCC/C1=C/Nc1ccc2c(c1)OCO2,inactive: -10.5%,–
O=C(CC1Sc2ccccc2NC1=O)OCc1cc(=O)oc2cc(O)ccc12 (centres undefined),–,"inconclusive: 50.1 µM [inhibitor, partial curve]"
NS(=O)(=O)c1ccc(CCNC(=O)C(=O)c2cn(CC(=O)N3CCCC3)c3ccccc23)cc1,inactive: 2.65%,–
CC1CCN(S(=O)(=O)c2ccc(NC(=O)c3ccco3)cc2)CC1,inactive: -4.92%,–
Cc1ccnc(NC(c2ccsc2)c2ccc3ccc(C)nc3c2O)c1 (centres undefined),inactive: -27.4%,–
COC1=C(N)C(=O)c2nc(-c3nc(C(=O)O)c(C)c(-c4ccc(OC)c(OC)c4O)c3N)ccc2C1=O,–,"inconclusive: 22.4 µM [inhibitor, full curve]"
O=C(NCCN1C(=O)S/C(=C\c2ccccc2F)C1=O)C1CC(=O)N(Cc2ccccc2)C1 (centres undefined),–,"inconclusive: 39.8 µM [inhibitor, single point]"
O=C(Nc1ccccc1Cl)c1cc(C2CCCN(C(=O)c3cccc(O)c3)C2)on1 (centres undefined),inactive: -1.84%,–
CC1(C)Cc2nc3sc4c(SCC(=O)NCc5ccco5)ncnc4c3cc2CO1,inactive: -23.7%,–

# One compound at a time, from the list above.
# O=C(NCCN1C(=O)S/C(=C\c2ccccc2F)C1=O)C1CC(=O)N(Cc2ccccc2)C1 (centres undefined) in the list: Potency: inconclusive: 39.8 µM [inhibitor, single point]
# CC(=O)Oc1ccc2c(c1)Oc1cc(OC(C)=O)ccc1C21OC(=O)c2ccccc21 in the list: activity change, negative = inhibition: inactive: -17.9%
# NS(=O)(=O)c1ccc(CCNC(=O)C(=O)c2cn(CC(=O)N3CCCC3)c3ccccc23)cc1 in the list: activity change, negative = inhibition: inactive: 2.65%
# COC1=C(N)C(=O)c2nc(-c3nc(C(=O)O)c(C)c(-c4ccc(OC)c(OC)c4O)c3N)ccc2C1=O in the list: Potency: inconclusive: 22.4 µM [inhibitor, full curve]

# Remaining list, next part:

Compound,"activity change, negative = inhibition",Potency
Cc1ccc(NC(=O)c2ccc(Nc3c([N+](=O)[O-])cc([N+](=O)[O-])cc3[N+](=O)[O-])cc2)cc1,–,"inconclusive: 89.1 µM [inhibitor, partial curve]"
CC(=O)Nc1c(C(=O)O)[nH]c2ccccc12,inactive: 1.1%,–
COc1ccc(S(=O)(=O)N2CCOC2CNC(=O)C(=O)NCc2ccccn2)cc1C (centres undefined),–,"inconclusive: 79.4 µM [inhibitor, single point]"
O=C(c1ccccc1)N1N=C(c2ccccc2)CC1c1ccccc1O (centres undefined),–,"inconclusive: 89.1 µM [inhibitor, single point]"
Cc1c(Cl)cccc1Nc1n[nH]c(=S)s1,inactive: -12%,–
CCN(CC)c1ccc(NC(=O)c2ccccn2)cc1S(=O)(=O)Nc1ccccc1OC,inactive: -22.5%,–
Oc1ccc(/C=N/Nc2ncnc3c2ncn3Cc2ccccc2)cc1O,–,"inconclusive: 17.8 µM [inhibitor, full curve]"
Cc1nn(C)c(C(=O)Sc2cccc(Cl)c2)c1[N+](=O)[O-],–,"inconclusive: 50.1 µM [inhibitor, partial curve]"
O=C1C(C=Nc2ccccc2O)=C(O)c2ccccc21,inactive: -14.8%,–
COc1ccc(/C=C2/C(=O)ON=C2C)cc1Br,–,"inconclusive: 44.7 µM [inhibitor, full curve]"
CN(C)c1ncc([N+](=O)[O-])cc1C(F)(F)F,–,"inconclusive: 39.8 µM [inhibitor, single point]"
O=C(Nc1ccc([N+](=O)[O-])cc1)C(=O)Nc1cccc(C(=O)O)c1,inactive: -1.97%,–
COc1ccc(OC)c(NC(=O)CCNS(=O)(=O)c2ccc3c(c2)CC(C)N3C(C)=O)c1 (centres undefined),inactive: 17%,–
Oc1ccc2ccccc2c1C=Nc1ccccc1-c1nc2ccccc2[nH]1,–,"inconclusive: 100 µM [inhibitor, partial curve, poor fit]"
C/C(CC(=O)Nc1ccc(N(C)C)cc1)=N\NC(=O)Cc1csc(N)n1,–,"inconclusive: 79.4 µM [inhibitor, single point]"
CC1CCCC(C)N1C(=O)COC(=O)/C=C/c1ccco1 (centres undefined),inactive: -11.5%,–
O=C(Cc1ccc(Cl)cc1)Nc1cccc(C(=O)Nc2ccccc2C(=O)O)c1,–,active: 89.1 µM
Cn1cnc([N+](=O)[O-])c1S(=O)(=O)Oc1ccc(Cl)cc1,–,active: 35.5 µM
CC1(C)CC(=O)C(C(C2=C(O)CC(C)(C)CC2=O)c2ccco2)C(=O)C1 (centres undefined),–,"inconclusive: 56.2 µM [inhibitor, partial curve]"
NC(=S)NNC(=S)Nc1ccccc1,–,"inconclusive: 70.8 µM [inhibitor, single point]"
Cc1cc(C(=O)COc2cc(F)ccc2[N+](=O)[O-])c(C)n1C1CC1,inactive: -13.2% [at 57.1 µM],–
c1ccc2c(NCCc3c[nH]c4ccccc34)c3ccccc3nc2c1,–,active: 25.1 µM
Cc1ccc(-c2csc3ncnc(-n4nnc5ccccc54)c23)cc1C,–,"inconclusive: 12.6 µM [inhibitor, partial curve]"
COC1=CC(=NCl)C=CC1=NCl,–,"inconclusive: 50.1 µM [inhibitor, partial curve]"
O=C(/C=C/c1cccs1)Nc1sc2c(c1C(=O)O)CCCC2,inactive: 6.23%,–

Compound,"activity change, negative = inhibition",Potency
COc1ccc(C(=O)COC(=O)c2ccccc2NS(=O)(=O)c2ccc(O)c([N+](=O)[O-])c2)cc1,–,"inconclusive: 79.4 µM [inhibitor, partial curve]"
COc1ccc(NC(=O)Cn2cccc2)c(OC)c1,inactive: -2.8%,–
N#Cc1ccsc1NC(=O)c1cccc(-n2cnnn2)c1,–,"inconclusive: 50.1 µM [inhibitor, partial curve]"
CCOC(=O)CSc1nc2sc(C)c(C)c2c(=O)[nH]1,inactive: 0.75%,–
O=C(Cn1cccc1C(=O)c1ccccc1)NCCc1ccc(Cl)cc1,inactive: -0.973%,–
CCOc1cc(C2C(C#N)=C(N)OC(C)=C2C(C)=O)cc(Br)c1O (centres undefined),–,"inconclusive: 56.2 µM [inhibitor, partial curve]"
CC1CCCN(C(=S)SCC(=O)c2cc(Br)cc(Br)c2O)C1 (centres undefined),–,active: 89.1 µM
Cc1ccc(NS(=O)(=O)c2cc(NC(=O)c3ccc4c(c3)NC(=O)CS4)ccc2C)c(C)c1,–,"inconclusive: 44.7 µM [inhibitor, partial curve]"
CN(C)C(=S)NCc1ccccc1,–,"inconclusive: 89.1 µM [inhibitor, single point]"
CCc1ccc(S(=O)(=O)Nc2ccc(Br)cn2)cc1,inactive: 3.07% [at 57.1 µM],–
COc1ccc(N2CCN(C(=O)c3ccc4c(=O)n(CCc5ccc(OC)c(OC)c5)c(=O)[nH]c4c3)CC2)cc1,inactive: -4.3%,–
CCCn1c(=O)[nH]c(=O)c2c(C(=O)OCC)cc(-c3cccs3)nc21,–,"inconclusive: 28.2 µM [inhibitor, single point]"
c1ccc2c(c1)Nc1nccnc1S2,–,"inconclusive: 63.1 µM [inhibitor, partial curve, poor fit]"
C=CCn1c(=N)n(CC(=O)c2ccc(Br)cc2)c2ccccc21,–,"inconclusive: 100 µM [inhibitor, single point]"
Cc1cc(C)c(C)c(OCC(=O)N2CCN(c3ccccn3)CC2)c1,–,"inconclusive: 89.1 µM [inhibitor, single point]"
COc1ccc(-n2nc(C#N)c(Cl)cc2=O)cc1,–,"inconclusive: 50.1 µM [inhibitor, partial curve]"
CCCCN(C)C1=CC2=CC(=C(C#N)C#N)CCC2CC1 (centres undefined),–,"inconclusive: 21.2 µM [inhibitor, single point]"
COc1cccc(-c2nc3cc(C)ccc3o2)c1,–,"inconclusive: 35.5 µM [inhibitor, partial curve]"
Cn1c(=O)n(Cc2ccccc2Cl)c(=O)c2c1[nH]c(=S)n2C,–,"inconclusive: 79.4 µM [inhibitor, single point]"
COc1cc(OC)cc(C(=O)OCC(=O)NCc2ccco2)c1,inactive: 7.23% [at 11.6 µM],–
O=S(=O)(NNc1ncc(C(F)(F)F)cc1Cl)c1ccccc1,–,"inconclusive: 25.1 µM [inhibitor, full curve, poor fit]"
O=C(NCCc1ccccc1)C1CCCN1C(=O)Nc1ccc(F)cc1 (centres undefined),inactive: 11%,–
CCOC(=O)c1sc2nc3c(SCCC(=O)O)cc(C(=O)c4cc(OC)ccc4O)cn3c(=O)c2c1C,inactive: -23.4%,–
CCc1ccc(/C=C2\SC(=S)N(CCCC(=O)Nc3ccccc3C(=O)O)C2=O)cc1,–,"inconclusive: 39.8 µM [inhibitor, single point]"
